This passage reports binding results from article PMC11045800.

Results are given in words; binding and its absence hold for the method and conditions named. For part of these data: Binding seen in cells or lysates may run through a third protein. Some binding calls cover weakened binding; strength is not graded here.

The target of experiment [1] is T1, protein kinase RNA-like ER kinase (PERK), endogenous in mouse primary neonatal cardiomyocytes (mouse (endogenous in primary neonatal cardiomyocytes)) (UniProt Q9Z2B5).
T1 sequence: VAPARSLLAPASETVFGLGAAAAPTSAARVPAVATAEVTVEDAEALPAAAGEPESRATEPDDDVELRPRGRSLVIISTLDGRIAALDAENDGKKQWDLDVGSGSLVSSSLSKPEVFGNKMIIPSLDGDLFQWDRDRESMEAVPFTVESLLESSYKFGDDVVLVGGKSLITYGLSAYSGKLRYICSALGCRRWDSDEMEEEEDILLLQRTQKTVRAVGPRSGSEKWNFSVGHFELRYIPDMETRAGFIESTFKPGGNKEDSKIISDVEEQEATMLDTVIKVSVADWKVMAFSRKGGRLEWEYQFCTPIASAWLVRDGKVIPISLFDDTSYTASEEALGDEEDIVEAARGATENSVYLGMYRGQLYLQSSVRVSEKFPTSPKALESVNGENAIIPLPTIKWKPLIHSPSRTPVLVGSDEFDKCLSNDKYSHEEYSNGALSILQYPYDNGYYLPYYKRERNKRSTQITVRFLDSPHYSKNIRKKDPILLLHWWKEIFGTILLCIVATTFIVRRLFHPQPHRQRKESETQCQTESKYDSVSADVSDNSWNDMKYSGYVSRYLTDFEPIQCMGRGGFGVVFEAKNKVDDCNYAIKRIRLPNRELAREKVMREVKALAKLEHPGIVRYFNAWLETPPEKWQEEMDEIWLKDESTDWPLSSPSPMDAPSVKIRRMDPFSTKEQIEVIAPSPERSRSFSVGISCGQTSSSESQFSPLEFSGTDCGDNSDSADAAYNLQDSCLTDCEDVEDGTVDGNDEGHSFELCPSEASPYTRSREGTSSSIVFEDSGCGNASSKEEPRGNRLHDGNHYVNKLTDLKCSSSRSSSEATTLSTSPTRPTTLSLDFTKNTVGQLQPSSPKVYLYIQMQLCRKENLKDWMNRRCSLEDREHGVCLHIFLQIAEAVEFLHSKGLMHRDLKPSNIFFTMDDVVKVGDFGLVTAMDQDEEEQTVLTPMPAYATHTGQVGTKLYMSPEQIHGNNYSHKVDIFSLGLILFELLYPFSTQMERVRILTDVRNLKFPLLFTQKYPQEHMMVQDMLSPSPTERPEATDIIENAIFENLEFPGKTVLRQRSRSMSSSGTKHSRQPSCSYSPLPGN
In words: co-IP; endogenous proteins; whole-cell lysates of mouse primary neonatal cardiomyocytes (Trim29fl/fl or WT MyHC-Cre) infected with CVB3 or EMCV for 6 h at MOI 5; anti-PERK or control IgG, protein A/G beads; blot with anti-TRIM29 and anti-PERK.

Experiment [2] has as its target T2, active phosphorylated PERK (pPERK), endogenous in mouse primary neonatal cardiomyocytes (mouse (endogenous in primary neonatal cardiomyocytes)) (UniProt Q9Z2B5).
T2 sequence (chain, phosphorylated (site not stated)): T1 sequence
In words: co-IP; endogenous proteins; whole-cell lysates of mouse primary neonatal cardiomyocytes (Trim29fl/fl) infected with CVB3 at MOI 5 and treated with DMSO for 6 h; anti-pPERK or control IgG.

The target in experiment [3] is T3, TANK-binding kinase 1 (TBK1), endogenous in AC16 human cardiomyocytes (human (endogenous in AC16)), Q9UHD2.
T3 chain: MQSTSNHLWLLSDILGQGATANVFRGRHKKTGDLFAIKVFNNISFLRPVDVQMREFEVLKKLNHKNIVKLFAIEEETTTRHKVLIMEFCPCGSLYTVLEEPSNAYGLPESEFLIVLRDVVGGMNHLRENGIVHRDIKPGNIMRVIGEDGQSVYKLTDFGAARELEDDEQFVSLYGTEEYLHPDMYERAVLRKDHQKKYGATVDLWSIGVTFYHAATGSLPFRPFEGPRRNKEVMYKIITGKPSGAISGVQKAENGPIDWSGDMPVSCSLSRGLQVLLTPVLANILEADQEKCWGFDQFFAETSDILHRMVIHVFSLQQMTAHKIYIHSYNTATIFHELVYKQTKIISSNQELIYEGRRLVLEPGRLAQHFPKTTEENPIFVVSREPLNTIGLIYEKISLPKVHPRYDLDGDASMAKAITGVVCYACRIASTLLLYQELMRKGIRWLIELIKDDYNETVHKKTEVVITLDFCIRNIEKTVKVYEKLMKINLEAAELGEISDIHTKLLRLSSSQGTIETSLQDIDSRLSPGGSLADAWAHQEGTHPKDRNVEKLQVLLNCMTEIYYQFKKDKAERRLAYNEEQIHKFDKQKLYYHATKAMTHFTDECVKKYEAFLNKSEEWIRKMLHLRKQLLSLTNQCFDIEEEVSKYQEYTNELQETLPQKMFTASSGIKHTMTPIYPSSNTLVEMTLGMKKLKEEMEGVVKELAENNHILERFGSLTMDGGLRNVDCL
The experiment in a line: native gel or EMSA; immunoblot of native TBK1 monomer and dimer in cardiomyocytes with TRIM29 knockout (mouse) or knockdown (human AC16), infected with CVB3 or EMCV for 6 h at MOI 5. The following applies: remark: other sources report otherwise. (In general: A gel shift assay detects complexes by their altered migration in electrophoresis.)

B1: TRIM29, endogenous in mouse primary neonatal cardiomyocytes (protein, UniProt Q8R2Q0 1-587)
chain: MEGADACRSNGASPEARDTRSPPGPSGSLENGTKADSKDTKTTNGHSGEVTEGKTLGSALKSGEGKSGLFSSNEWRRPIIQFVESVDDKGSSYFSMDSAEGRRSPYAGLQLGASKKPPVTFAEKGELRKSIFSEPRKPTVTIVEPGEVRRNSYPRADSSLLARAKSGSEEVLCDSCIGNKQKAVKSCLVCQASFCELHLKPHLEGAAFRDHQLLEPIRDFEARKCPLHGKTMELFCQTDQTCICYLCMFQEHKNHSTVTVEEAKAEKETELSLQKEQLQLKIIEIEDDVEKWQKEKDRIKSFTTNEKAILEQNFRDLVRELEKQKEEVRAALEQREQDAVDQVKVIVDALDERAKVLHEDKQTREQLHNISDSVLFLQEFGALMSNYSLPPPLPTYHVLLEGEGLGQSLGNCKDDLLNVCMRHVEKMCKADLSRNFIERNHMENGGDHRYMNSYTSSYGNEWSTPDTMKRYSMYLTPKGGGRTSYQPSSPSRLSKETNQKNFNNLYGTKGNYTSRVWEYTSTVQNSEDMPTVQGNSSFSLKGFPSLLRSQVPKAQPQTWKSGKQTLLSHYRPFYVNKGSGIGSNEAP
B1: the binding entry in experiment [1] and in experiment [2] was “binds” each time.

B2: TANK-binding kinase 1 (TBK1), endogenous in AC16 human cardiomyocytes, Q9UHD2 1-729 (protein)
chain: T3 chain
Consider B2, for which the binding entry in experiment [3] is “binds”.
